From PMC5910412 come the findings set out here.

By UniProt entry, the sequences of proteins in these tests, tags left out.
UniProt P46940: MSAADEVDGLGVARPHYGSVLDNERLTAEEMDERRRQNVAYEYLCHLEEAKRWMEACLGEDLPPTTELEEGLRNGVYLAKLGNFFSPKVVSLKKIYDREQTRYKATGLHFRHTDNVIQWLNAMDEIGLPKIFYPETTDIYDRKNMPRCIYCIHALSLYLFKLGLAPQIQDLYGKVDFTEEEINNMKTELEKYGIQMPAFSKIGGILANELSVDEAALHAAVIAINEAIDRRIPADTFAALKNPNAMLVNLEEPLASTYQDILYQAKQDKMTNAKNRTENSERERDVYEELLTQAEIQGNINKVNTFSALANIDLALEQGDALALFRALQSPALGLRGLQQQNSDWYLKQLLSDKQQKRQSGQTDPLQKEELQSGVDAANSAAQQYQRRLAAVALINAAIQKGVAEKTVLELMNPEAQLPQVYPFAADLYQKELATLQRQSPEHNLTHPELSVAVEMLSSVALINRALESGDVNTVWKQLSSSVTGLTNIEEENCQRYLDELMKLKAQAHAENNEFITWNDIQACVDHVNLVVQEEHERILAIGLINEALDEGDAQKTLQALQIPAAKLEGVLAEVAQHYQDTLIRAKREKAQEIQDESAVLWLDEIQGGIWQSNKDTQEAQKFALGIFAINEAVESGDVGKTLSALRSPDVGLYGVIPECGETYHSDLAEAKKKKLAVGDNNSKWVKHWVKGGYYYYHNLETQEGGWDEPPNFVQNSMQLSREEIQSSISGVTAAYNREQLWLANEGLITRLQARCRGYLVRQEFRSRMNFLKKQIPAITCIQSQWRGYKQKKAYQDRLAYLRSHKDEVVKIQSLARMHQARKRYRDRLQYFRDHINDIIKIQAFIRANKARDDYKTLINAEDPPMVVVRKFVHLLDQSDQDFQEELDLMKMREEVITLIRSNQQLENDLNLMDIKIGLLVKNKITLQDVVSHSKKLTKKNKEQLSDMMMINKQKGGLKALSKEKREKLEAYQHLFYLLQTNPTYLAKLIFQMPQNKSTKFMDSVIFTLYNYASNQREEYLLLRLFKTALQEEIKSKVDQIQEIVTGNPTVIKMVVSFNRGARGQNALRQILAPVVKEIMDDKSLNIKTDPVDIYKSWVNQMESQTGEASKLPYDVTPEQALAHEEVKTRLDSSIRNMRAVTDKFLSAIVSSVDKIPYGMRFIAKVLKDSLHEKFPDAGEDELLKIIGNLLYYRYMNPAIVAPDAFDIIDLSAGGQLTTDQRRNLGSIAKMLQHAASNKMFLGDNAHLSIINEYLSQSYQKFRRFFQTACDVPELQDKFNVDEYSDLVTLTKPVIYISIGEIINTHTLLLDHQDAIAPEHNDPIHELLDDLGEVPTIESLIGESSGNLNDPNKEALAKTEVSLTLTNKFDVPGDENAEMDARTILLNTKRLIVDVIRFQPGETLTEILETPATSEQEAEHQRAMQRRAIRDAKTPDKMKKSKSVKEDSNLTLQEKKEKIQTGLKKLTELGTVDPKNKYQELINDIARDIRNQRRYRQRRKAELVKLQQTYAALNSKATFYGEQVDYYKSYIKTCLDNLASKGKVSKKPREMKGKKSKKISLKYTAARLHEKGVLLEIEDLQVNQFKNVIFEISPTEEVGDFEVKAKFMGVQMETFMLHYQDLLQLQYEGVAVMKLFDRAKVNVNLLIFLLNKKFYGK

The target in this assay is T1, MISP (mitotic interactor and substrate of Plk1), bait of the co-IP/mass spectrometry screen (UniProt Q8IVT2).
T1 sequence: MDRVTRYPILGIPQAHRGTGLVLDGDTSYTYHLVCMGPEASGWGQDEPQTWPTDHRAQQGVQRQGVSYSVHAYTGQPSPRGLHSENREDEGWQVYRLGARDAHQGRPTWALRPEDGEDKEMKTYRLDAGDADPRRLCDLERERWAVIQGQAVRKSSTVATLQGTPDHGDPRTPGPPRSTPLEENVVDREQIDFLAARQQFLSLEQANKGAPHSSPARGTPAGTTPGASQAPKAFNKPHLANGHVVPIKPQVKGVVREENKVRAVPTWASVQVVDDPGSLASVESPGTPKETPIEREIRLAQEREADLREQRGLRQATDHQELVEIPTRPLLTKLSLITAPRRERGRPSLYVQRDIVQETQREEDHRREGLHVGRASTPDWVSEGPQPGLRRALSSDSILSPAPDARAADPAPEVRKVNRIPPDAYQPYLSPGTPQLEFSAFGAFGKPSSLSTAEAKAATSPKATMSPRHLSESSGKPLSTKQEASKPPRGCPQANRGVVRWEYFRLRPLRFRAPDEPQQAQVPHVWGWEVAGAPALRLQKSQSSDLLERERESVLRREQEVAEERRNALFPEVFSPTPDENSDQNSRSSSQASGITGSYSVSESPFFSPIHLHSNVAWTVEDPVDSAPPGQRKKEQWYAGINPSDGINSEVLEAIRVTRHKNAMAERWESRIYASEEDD
Kind of assay: affinity purification with mass spectrometry; co-immunoprecipitation followed by mass spectrometry with MISP as bait in mitotically blocked HeLa cells.

Results are given in words; binding and its absence hold for the method and conditions named. Binding seen in cells or lysates may run through a third protein. These calls come from enrichment with a bait or labelling near it, and not all partners need be listed.

As to “endogenous IQGAP1 (from UniProt P46940 1-1657)”, the binding result is listed as “binds”.
